Consider two molecules from ChEMBL document CHEMBL2021799, “Exploring the interplay of physicochemical properties, membrane permeability and giardicidal activity of some benzimidazole derivatives” (Eur J Med Chem, 2012).

Series [1] in a line: Aqueous solubility of the compound. The following applies: buffer.
Series [2] can be described thus: Distribution coefficient, log D of the compound. The settings on record: octanol/water.
Series [3] in a line: Lipophilicity, logkw of the compound by RP-HPLC analysis.

The structures appear in SMILES notation. ≈ marks a conversion by molar mass, not a printed value.

As to `CSc1nc2ccc(Cl)cc2n1C`, the concentration in solution in series [1] (solubility) came to 0.0142 µg/mL (≈ 0.0668 µM). Further, in series [2], the logD – broadly, lipophilicity at a set pH, counting ionised and neutral species – was determined as 4.15. In addition, in series [3], the logKw came to 2.49.
In the case of `Cc1nc2ccc(Cl)cc2n1C`, in series [1], the concentration in solution (solubility) was 126 µg/mL (≈ 696 µM). For the same molecule, the logD in series [2] came out at 2.49.
